# Laboratory results as given in US20210369677A1, “SMALL MOLECULE ACTIVATORS OF POLYCYSTIN-2 (PKD2) AND USES THEREOF” (Northwestern University, priority 2020, published 2021).
# For at least one compound, name, drawing or mass did not settle the structure.
# Molecular target: T1, PKD2 (Homo sapiens, UniProt Q13563)
# T1 sequence (Q13563 1-968): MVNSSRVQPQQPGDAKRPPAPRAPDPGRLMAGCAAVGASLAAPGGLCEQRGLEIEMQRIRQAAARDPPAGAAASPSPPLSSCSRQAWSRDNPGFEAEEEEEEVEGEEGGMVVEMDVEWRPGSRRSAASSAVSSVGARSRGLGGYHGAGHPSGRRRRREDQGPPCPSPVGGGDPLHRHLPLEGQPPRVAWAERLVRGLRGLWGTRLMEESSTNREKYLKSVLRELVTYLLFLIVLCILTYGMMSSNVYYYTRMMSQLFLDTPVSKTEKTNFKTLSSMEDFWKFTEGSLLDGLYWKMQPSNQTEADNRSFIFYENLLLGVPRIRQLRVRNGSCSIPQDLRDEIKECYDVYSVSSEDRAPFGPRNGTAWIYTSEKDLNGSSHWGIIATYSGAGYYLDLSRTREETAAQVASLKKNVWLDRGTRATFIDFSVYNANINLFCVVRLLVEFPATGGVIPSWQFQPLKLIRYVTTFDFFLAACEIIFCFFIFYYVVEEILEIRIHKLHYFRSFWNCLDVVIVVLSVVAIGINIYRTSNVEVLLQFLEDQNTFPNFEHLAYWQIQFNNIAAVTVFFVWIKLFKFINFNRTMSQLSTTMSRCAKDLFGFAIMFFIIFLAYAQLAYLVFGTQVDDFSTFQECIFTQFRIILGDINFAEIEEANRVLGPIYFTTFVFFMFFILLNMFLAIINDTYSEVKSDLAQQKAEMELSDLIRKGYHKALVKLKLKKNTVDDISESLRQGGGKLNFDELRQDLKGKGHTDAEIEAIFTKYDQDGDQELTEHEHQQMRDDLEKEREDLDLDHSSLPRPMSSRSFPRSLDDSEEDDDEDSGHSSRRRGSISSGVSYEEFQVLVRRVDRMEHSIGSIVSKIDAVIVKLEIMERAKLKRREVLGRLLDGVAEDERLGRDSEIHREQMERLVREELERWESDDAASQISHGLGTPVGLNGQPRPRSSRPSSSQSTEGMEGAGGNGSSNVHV
# Assay: PKD2 conductance assay
# Assay type: cell-based
# From the text: FIG. 35. Conductance of PKD2 in the presence of test compounds CAS Number 57265-65-3 (calmidazolium (CMZ)), CAS Number 617-27-0 (W-13), and CAS Number 448895-37-2 (NS1643)
# We also tested the additional compound CAS Number 57265-65-3 (calmidazolium (CMZ)), the compound CAS Number 617-27-0 (W-13), and NS1643 in a PKD2 conductance assay.
smiles,measurement,value
"Clc1ccc(C(c2ccc(Cl)cc2)n2cc[n+](CC(OCc3ccc(Cl)cc3Cl)c3ccc(Cl)cc3Cl)c2)cc1 (stereo not shown) [calmidazolium, 1-[bis(4-chlorophenyl)methyl]-3-[2-(2,4-dichlorophenyl)-2-(2,4-dichlorobenzyloxy)ethyl]-1H-imidazolium]",PKD2 conductance,increased PKD2 conductance
